Primary screen of a compound library

Chains of the proteins cited; added tags and fusions are not shown.
UniProt E9BF75, entry or part of it: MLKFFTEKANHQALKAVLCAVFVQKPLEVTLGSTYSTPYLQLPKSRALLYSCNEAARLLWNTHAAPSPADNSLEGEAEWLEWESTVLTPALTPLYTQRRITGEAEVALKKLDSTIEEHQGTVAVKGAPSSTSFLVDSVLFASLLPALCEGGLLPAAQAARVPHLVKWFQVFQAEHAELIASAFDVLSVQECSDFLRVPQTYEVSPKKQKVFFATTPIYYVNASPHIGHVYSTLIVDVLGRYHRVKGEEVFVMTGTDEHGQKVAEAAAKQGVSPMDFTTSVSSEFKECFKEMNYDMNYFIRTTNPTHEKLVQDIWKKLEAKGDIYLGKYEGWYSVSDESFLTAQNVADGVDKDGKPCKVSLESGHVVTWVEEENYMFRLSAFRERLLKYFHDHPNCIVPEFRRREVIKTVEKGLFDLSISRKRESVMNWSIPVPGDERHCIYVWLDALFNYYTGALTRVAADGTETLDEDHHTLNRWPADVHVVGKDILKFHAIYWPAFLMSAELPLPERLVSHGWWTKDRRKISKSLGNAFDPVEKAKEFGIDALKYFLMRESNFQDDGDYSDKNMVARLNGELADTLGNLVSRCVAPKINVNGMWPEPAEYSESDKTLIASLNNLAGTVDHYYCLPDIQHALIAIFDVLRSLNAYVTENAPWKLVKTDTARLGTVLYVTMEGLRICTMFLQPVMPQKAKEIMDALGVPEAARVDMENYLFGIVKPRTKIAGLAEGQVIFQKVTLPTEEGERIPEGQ

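Methionyl-tRNA synthetase (putative), Leishmania donovani (UniProt E9BF75). Primary screen of methionyl-tRNA synthetase; the read-out is not stated. The test concentration is not given. The values are filed as inhibition. Of about 68,000 compounds tested this way, about 24 (0.035%) reached 50% or more in at least one test.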

Results are percentages, as filed.
The controls that fix the scale are not given in the record; negative values are as filed.
This is an unselected part of the compounds tested.

With Cn1cc(C2=CCN(CCCC(=O)Nc3ccc(C#N)cc3)CC2)cn1 the screen gave 7.563%. COc1ccc(Cl)cc1CNC(=O)CN1CCC2(CCOC2)C1 (stereo unspecified) gave 12.1%. Result for Cc1ccc(NC(=O)NC(C)(C)c2noc(C)n2)cc1 was 7.065%. Result for COc1cc(N2CCCC(CO)(Cc3ccccc3F)C2)ncn1 (stereo unspecified) was 6.25%. COc1ccc(CNC(=O)CCn2cc(C)cn2)cc1C gave 5.674%. For CCn1c(C2CCN(Cc3cc(C)n(NC(C)=O)c3C)CC2)n[nH]c1=O the result was 17.38%. Result for CCN1CCN(C2CCN(C(C(N)=O)c3ccccc3)CC2)C1=O (stereo unspecified) was 16.58%.

O=C(Cc1cccc(F)c1)NCCNCc1cccc(O)c1 read 12.55%. With CCN1CC(C(=O)NCCCc2nc(C)c(C)s2)CC1=O (stereo unspecified) the screen gave 19.31%. O=C([C@H]1C[C@@H]2CN(c3ncc(F)cn3)C[C@H]1O2)N1CCOCC1 read 11.14%. With Cn1cnc(S(=O)(=O)NCCC(O)c2ccc3c(c2)OCO3)c1 (stereo unspecified) the screen gave 7.034%. Cc1ccsc1CN(Cc1ccccn1)CC(C)C gave 11.5%. COc1ccc2c(c1)C(=O)N(C)C1(CCN(CC3CC3)CC1)N2 gave -7.33%. Cc1ccc(C(=O)N2CCc3ncnc(-c4cnn(C)c4)c3CC2)o1 gave 10.15%.

Result for NC(=O)CNC(c1ccccc1)c1ccccc1 was -11.67%. Result for CCN(CC)S(=O)(=O)NC(C)C(=O)N(C)C (stereo unspecified) was 8.871%. With CCN1CC(C(=O)N2CCc3cc(C(=O)N(C)C)n(C)c3C2)CCC1=O (stereo unspecified) the screen gave 6.812%. Cc1ccsc1CN(C)c1nc2c(cnn2C(C)(C)C)c(=O)[nH]1 read 23.48%. Result for Cc1cc(CN2CCN(C(=O)C3(C#N)CCCC3)CC2)on1 was 10.2%. With CN(C)C1COC2(CCN(S(=O)(=O)c3ccc(F)cc3)CC2)C1 (stereo unspecified) the screen gave 12.32%. Cc1nn(C)c2ncc(CN3CCN(c4ncccn4)CC3)cc12 read 14.37%.

Result for CCC(O)CN1CCN(C(=O)Cc2ccc(OC)cc2OC)CC1 (stereo unspecified) was 18.58%. For COc1ccccc1Oc1ncccc1CNC(=O)C1COC(=O)N1 (stereo unspecified) the result was 17.34%. CC(C)C(=O)N1CC[C@H]2N(C)CC[C@@]2(C(=O)Nc2ccccc2)CC1 gave 15.06%. Cc1noc(C2CCN(C(=O)c3ccc(C(F)(F)F)nc3)CC2)n1 gave 22.63%. COCC1CN(C(=O)COc2ccccc2C)Cc2ncn(C)c21 (stereo unspecified) gave 13.41%. Cc1cccc(C2(CNC(=O)c3ccnc(N(C)C)c3)CCOCC2)c1 read 8.14%. O=C(O)c1cnc2c(cnn2C2CCCC2)c1 read 15.22%.

For Cc1nc2cc(-c3nccn3C)nn2c(N2CCC(O)CC2)c1C the result was 6.395%. CN(Cc1ccccc1Cl)C(=O)c1cc(CN2CCC(O)CC2)on1 read 11.2%. With Cc1nc(C(C)Nc2ncnc3c2CCNCC3)c(C)s1 (stereo unspecified) the screen gave 9.524%. For c1nc2c(c(C3CC3)n1)CCN(Cc1ccc3c(c1)OCO3)CC2 the result was 17.5%. With O=C(CC1CCN(CCc2ccccc2)CC1)NC1CCOCC1 the screen gave 14.17%. Cc1nc(NCc2cccc(F)c2)cc(C2CCNCC2)n1 read 9.449%. For CCOC(=O)C1(Cc2cccc(Cl)c2)CCCN(Cc2ncc[nH]2)C1 (stereo unspecified) the result was 4.02%.

CS(=O)(=O)NCCN1CCOC2(CCc3ccccc32)C1 (stereo unspecified) gave 5.645%. O=C(CC1CCc2ccccc21)NC1(C(=O)O)CCCC1 (stereo unspecified) read 2.787%. With Clc1ccc(CN(CCN2CCOCC2)Cc2cccnc2)cc1Cl the screen gave 13.29%. With CN(Cc1coc(-c2ccccc2)n1)CC1CCCN1c1cccnn1 (stereo unspecified) the screen gave 12.53%. CC1=C(c2ccc(C(C)C)cc2)S(=O)(=O)N=C1N1CCc2ccccc21 read 0%. For Cc1cc(NS(=O)(=O)c2ccc(Cl)s2)ccc1-n1cccc1C(=O)O the result was 19.63%.

Some entries from above, unchanged:

{"compound": "Cc1ccc(NC(=O)NC(C)(C)c2noc(C)n2)cc1", "Inhibition": 7.065}
{"compound": "COc1cc(N2CCCC(CO)(Cc3ccccc3F)C2)ncn1", "stereo": "stereo unspecified", "Inhibition": 6.25}
{"compound": "Cc1ccc(C(=O)N2CCc3ncnc(-c4cnn(C)c4)c3CC2)o1", "Inhibition": 10.15}

Source: ChEMBL document CHEMBL3988442, “University of Dundee, Small-Polar-MMV Screening Library” (2021).